Binding data for one molecule are collected here from article PMC11641020.

By UniProt entry, the sequences of proteins in these tests, tags left out.
UniProt P55786: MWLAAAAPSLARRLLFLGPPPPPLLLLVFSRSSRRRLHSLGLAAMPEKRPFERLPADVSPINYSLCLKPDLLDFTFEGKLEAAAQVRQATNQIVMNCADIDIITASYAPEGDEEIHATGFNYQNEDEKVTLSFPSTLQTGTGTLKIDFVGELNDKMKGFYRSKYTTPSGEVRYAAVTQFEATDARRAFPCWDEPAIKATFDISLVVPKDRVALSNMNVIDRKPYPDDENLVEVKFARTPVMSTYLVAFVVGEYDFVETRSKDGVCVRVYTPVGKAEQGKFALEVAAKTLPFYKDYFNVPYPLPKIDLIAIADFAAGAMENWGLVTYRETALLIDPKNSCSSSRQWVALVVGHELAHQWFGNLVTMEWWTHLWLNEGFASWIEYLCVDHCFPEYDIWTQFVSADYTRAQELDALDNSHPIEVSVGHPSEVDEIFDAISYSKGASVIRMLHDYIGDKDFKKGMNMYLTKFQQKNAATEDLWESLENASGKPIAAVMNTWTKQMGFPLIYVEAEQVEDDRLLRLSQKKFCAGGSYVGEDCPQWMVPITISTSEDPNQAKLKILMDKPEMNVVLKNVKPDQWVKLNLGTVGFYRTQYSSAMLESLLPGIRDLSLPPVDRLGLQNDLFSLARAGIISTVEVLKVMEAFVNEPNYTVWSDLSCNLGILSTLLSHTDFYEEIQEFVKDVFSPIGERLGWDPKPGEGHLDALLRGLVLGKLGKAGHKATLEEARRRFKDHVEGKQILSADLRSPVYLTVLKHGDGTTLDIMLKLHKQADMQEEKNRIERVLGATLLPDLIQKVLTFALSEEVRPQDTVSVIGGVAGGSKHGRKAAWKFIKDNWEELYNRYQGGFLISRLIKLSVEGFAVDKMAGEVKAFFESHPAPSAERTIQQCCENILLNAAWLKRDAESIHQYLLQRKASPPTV

In this assay the target is FLAG-tagged NPEPPS (puromycin-sensitive aminopeptidase), wild type (human) (UniProt P55786). As to the kind of experiment: affinity purification with mass spectrometry; anti-FLAG IP of NPEPPS^FLAG from KU1919 and T24 lysates, LC-MS/MS, enrichment over non-FLAG controls, n = 3 independent lysates per cell line.

Results are given in words; binding and its absence hold for the method and conditions named. Binding seen in cells or lysates may run through a third protein. Here binding means that the protein was enriched with, or labelled near, the bait; the list need not be complete.

B1: solute carrier family 1 member 5 (SLC1A5), endogenous (protein, UniProt Q15758 1-541)
chain: MVADPPRDSKGLAAAEPTANGGLALASIEDQGAAAGGYCGSRDQVRRCLRANLLVLLTVVAVVAGVALGLGVSGAGGALALGPERLSAFVFPGELLLRLLRMIILPLVVCSLIGGAASLDPGALGRLGAWALLFFLVTTLLASALGVGLALALQPGAASAAINASVGAAGSAENAPSKEVLDSFLDLARNIFPSNLVSAAFRSYSTTYEERNITGTRVKVPVGQEVEGMNILGLVVFAIVFGVALRKLGPEGELLIRFFNSFNEATMVLVSWIMWYAPVGIMFLVAGKIVEMEDVGLLFARLGKYILCCLLGHAIHGLLVLPLIYFLFTRKNPYRFLWGIVTPLATAFGTSSSSATLPLMMKCVEENNGVAKHISRFILPIGATVNMDGAALFQCVAAVFIAQLSQQSLDFVKIITILVTATASSVGAAGIPAGGVLTLAIILEAVNLPVDHISLILAVDWLVDRSCTVLNVEGDALGAGLLQNYVDRTESRSTEPELIQVKSELPLDPLPVPTEEGNPLLKHYRGPAGDATVASEKESVM
For the molecule B1, the binding result is “binds”.
